The text below walks through data of PMC11222469.

Amino acid sequences for entries named in this document (tags omitted).
UniProt Q96FF9: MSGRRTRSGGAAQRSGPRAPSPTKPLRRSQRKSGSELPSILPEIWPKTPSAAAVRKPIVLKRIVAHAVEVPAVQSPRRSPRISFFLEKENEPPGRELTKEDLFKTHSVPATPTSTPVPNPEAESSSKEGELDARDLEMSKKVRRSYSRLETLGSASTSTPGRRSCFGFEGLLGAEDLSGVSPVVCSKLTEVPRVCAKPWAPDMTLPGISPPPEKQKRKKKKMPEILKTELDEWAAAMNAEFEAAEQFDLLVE

These are yes or no findings as the source states them, for the method shown. In cells and extracts the contact can be indirect. Some binding calls cover weakened binding; strength is not graded here.

The target in one assay is FLAG-CDCA5 (human) (UniProt Q96FF9). Nature of the assay: co-IP; FLAG-immunoprecipitation of FLAG-SMC1A constructs or FLAG-CDCA5 from HEK293T cells stably expressing HA-DCAF15, 5 uM MLN4924 for 6 h; also after siRNA against SMC3 or RAD21 or overexpression of RAD21; Western blot. (Immunoblotting shows a protein as a band on a membrane.)
The target in assay [1] is SMC1A (human (endogenous in HEK293T, MV4-11, HEL, HEK293)) (UniProt Q14683). Nature of the assay: co-IP; alpha-SMC1A antibody; lysates of HEK293 FLAG-HA-dTAG-DCAF15[Clone#1] cells, asynchronous or synchronized in G1/S, G2 or prometaphase, DMSO or dTAG-13 (100 nM) for final 6 h; Western blot.
Assay [2] shares this target. Put plainly: co-IP; alpha-SMC1A antibody (1-10 ug per IP) overnight at 4 C, Protein-G beads, NP-40 buffer; lysates of Cas9+ HEL cells with ROSA26- or DCAF15-targeting sgRNAs; also with cycloheximide, MG132, MLN4924, indisulam or PCI-34051; Western blot.
The target of assay [3] is FLAG-tagged DCAF15 (DDB1- and Cul4-Associated Factor 15) (human) (UniProt Q66K64). Nature of the assay: co-IP; FLAG-immunoprecipitation from HEK293T cells transiently transfected with FLAG-DCAF15, HA-SMC1A, HA-PDS5A and HA-CDCA5, before an in vitro ubiquitination assay; Western blot.

Regarding “HA-tagged DCAF15 (from UniProt Q66K64 1-600)”, the binding result in the assay with FLAG-CDCA5 (human) is on record as “binds”. As for “CDCA5 (Sororin) (from UniProt Q96FF9 1-252)”, the binding entry in assay [1] and in assay [2] was “binds” in each case. With HA-CDCA5 (from UniProt Q96FF9 1-252), the binding entry in assay [3] is recorded as “binds”.
